The supplement of paper PMC6411743
± gives the standard deviation of the averaged measurements. Only a part is listed here, and it is no random draw. Most entries show no effect beyond the scatter of the controls.

The chains behind the UniProt entries cited, without tags or fusion partners. Where a name states a change or a piece, a line headed by the entry shows the natural chain unless it says otherwise.
UniProt Q07065: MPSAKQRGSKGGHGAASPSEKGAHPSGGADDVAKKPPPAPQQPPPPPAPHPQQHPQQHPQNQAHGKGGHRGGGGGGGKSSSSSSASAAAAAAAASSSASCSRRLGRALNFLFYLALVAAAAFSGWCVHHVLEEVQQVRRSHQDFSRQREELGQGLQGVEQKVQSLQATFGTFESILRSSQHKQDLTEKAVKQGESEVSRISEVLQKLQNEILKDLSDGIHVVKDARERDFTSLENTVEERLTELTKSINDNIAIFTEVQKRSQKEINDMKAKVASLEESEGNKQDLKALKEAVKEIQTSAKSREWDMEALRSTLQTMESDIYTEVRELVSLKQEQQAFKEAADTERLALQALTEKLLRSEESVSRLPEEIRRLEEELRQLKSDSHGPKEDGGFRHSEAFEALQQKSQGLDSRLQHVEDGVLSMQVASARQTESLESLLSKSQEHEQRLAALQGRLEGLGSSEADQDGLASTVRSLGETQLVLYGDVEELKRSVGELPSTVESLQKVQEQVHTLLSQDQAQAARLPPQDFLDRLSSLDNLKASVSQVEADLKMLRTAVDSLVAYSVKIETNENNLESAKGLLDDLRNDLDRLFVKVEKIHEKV
UniProt Q06945: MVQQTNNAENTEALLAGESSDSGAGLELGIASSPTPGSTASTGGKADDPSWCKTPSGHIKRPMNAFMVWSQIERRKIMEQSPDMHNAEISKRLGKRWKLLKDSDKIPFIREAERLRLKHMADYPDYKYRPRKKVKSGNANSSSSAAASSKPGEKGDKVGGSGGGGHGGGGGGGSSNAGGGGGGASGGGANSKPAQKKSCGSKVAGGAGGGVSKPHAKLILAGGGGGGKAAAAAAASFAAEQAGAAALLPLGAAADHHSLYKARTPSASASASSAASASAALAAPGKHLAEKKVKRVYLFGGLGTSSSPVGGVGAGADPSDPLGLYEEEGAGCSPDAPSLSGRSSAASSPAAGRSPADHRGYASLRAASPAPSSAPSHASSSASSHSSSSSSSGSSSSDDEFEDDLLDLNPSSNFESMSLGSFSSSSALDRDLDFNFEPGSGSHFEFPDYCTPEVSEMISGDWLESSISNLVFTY
UniProt Q06609, whole entry: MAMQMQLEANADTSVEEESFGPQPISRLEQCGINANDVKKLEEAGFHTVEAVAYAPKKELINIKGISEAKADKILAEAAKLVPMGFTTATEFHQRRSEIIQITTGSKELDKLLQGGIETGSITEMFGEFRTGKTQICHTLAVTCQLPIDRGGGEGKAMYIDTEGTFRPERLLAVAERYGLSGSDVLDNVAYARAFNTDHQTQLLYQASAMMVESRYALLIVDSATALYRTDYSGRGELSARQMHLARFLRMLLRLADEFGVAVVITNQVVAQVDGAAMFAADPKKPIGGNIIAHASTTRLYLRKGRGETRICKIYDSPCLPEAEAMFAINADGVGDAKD
UniProt Q00013: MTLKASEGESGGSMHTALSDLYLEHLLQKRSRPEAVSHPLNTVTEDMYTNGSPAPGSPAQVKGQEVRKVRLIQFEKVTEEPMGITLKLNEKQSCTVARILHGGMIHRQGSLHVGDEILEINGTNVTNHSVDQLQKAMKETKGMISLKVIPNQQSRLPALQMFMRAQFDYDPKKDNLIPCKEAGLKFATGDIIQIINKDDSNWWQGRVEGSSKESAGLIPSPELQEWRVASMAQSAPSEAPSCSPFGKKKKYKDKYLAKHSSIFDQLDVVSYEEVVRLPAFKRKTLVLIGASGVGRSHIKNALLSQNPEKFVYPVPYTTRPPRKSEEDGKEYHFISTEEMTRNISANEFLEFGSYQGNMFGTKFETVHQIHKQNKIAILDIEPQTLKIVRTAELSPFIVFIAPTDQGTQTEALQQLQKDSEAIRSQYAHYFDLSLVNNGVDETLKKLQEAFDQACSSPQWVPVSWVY
UniProt P56937: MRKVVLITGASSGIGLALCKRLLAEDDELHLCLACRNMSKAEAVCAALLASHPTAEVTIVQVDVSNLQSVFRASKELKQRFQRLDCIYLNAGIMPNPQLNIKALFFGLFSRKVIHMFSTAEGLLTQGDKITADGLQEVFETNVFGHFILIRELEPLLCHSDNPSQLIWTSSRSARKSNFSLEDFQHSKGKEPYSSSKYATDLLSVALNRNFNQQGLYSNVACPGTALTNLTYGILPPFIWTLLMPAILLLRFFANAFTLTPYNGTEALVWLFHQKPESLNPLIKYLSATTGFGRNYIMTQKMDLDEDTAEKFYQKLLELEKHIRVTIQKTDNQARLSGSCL
UniProt Q01105, whole entry: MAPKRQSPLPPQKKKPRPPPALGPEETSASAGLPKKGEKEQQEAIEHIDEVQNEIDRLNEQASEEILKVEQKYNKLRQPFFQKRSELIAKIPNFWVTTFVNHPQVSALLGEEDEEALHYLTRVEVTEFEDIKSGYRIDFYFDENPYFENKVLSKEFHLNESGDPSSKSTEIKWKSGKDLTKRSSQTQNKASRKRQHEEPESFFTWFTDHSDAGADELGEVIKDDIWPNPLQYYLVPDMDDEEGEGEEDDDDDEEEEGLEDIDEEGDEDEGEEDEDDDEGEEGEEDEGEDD
UniProt P78346: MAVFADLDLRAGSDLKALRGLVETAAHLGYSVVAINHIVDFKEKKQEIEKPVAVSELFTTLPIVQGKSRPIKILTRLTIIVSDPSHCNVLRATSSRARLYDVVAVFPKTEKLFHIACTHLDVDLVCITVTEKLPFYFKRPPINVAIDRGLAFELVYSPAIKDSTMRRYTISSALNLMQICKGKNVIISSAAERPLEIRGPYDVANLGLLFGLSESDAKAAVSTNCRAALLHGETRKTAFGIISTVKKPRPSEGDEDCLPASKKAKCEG
UniProt Q02127: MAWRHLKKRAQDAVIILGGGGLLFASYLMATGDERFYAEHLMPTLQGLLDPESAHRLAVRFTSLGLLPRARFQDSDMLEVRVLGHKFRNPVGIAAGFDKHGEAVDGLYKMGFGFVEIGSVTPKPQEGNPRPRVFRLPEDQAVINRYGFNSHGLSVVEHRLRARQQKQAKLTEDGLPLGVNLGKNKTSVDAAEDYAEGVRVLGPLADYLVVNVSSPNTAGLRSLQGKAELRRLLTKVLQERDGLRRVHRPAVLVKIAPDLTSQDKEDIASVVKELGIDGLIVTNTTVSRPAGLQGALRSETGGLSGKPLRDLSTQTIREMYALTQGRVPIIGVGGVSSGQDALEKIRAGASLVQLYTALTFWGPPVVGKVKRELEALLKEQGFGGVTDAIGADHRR
UniProt Q06330: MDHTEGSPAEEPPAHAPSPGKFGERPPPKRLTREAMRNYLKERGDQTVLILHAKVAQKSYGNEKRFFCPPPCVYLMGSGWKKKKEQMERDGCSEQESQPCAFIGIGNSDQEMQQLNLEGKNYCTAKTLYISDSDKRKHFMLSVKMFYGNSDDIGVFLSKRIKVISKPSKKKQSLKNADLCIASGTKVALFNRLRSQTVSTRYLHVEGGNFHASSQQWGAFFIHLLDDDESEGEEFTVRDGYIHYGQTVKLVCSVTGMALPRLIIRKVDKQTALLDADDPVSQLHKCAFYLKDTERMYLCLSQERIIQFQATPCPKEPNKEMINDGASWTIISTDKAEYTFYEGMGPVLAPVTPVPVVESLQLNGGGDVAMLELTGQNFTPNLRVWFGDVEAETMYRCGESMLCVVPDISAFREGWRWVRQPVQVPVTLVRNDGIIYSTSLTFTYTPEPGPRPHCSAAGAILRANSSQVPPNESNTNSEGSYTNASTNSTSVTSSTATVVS
UniProt P62318, whole entry: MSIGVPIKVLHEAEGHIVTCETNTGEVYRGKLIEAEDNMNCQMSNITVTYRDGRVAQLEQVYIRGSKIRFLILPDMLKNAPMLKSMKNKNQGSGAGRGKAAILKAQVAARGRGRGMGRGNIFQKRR
UniProt P80217: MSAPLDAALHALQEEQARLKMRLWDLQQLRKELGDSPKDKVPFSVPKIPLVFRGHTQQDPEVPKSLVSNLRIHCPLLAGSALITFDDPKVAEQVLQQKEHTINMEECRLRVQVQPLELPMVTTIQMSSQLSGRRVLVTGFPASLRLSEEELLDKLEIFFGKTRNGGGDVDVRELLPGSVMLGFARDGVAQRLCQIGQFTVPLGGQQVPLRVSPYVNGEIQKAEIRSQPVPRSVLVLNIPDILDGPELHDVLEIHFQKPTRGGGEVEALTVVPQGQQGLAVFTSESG
UniProt P67775, whole entry: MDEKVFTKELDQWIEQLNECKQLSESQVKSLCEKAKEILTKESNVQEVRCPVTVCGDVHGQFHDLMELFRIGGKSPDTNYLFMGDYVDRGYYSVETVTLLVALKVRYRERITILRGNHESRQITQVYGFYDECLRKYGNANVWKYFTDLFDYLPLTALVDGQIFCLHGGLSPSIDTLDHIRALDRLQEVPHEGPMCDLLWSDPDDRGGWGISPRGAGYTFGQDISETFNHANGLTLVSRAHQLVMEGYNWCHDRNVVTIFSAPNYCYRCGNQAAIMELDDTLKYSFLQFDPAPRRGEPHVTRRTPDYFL
UniProt P78347: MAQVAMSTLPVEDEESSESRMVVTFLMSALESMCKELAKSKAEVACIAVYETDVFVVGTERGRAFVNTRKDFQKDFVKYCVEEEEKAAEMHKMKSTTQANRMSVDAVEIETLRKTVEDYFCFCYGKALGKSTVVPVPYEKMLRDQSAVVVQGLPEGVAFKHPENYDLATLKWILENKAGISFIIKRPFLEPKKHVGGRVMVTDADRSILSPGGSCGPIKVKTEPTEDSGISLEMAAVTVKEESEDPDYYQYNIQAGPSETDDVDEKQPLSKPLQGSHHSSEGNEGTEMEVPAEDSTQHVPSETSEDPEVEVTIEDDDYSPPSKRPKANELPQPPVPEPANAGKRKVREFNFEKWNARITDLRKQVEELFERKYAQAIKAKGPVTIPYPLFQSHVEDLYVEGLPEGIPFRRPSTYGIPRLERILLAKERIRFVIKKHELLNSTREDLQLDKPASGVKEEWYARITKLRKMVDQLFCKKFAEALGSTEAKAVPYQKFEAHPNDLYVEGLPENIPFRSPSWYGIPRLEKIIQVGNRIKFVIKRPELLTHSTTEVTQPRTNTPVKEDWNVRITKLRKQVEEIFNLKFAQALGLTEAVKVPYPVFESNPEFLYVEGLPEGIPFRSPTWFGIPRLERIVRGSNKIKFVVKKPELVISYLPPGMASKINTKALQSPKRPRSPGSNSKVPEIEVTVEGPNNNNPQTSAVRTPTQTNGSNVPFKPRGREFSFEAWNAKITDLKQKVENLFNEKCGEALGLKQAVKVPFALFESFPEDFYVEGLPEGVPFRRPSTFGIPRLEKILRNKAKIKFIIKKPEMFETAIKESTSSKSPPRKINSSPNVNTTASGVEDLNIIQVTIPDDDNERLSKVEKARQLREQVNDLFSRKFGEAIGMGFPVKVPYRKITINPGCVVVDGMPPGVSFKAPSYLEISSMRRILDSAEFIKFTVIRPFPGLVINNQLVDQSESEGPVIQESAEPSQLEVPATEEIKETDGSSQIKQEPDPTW
UniProt Q00325: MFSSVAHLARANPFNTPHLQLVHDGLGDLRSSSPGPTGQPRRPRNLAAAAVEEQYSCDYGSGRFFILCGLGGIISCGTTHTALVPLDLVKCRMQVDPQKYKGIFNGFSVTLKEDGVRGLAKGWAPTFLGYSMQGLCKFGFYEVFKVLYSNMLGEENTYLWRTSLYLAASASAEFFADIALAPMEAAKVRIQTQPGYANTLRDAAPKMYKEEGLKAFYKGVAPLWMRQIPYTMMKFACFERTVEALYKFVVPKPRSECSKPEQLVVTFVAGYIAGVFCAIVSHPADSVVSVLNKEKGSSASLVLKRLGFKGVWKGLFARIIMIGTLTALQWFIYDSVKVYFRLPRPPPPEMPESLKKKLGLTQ
UniProt P68543: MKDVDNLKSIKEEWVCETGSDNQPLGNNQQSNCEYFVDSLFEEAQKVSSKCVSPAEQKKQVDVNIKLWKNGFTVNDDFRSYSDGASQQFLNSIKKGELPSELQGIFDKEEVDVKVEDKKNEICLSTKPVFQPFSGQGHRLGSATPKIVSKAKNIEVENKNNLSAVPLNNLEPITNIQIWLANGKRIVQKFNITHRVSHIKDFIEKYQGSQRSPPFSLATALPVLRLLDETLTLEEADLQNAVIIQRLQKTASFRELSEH
UniProt P60520, whole entry: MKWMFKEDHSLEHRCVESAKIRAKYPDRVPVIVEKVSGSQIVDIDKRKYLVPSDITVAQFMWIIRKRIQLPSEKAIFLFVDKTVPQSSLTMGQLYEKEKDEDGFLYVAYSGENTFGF
UniProt P55957: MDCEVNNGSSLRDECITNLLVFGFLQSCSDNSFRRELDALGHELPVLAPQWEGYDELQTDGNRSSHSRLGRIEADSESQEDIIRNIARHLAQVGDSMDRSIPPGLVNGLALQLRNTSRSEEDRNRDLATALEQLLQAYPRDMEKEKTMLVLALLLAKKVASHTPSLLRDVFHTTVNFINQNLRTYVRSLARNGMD
UniProt P63279, whole entry: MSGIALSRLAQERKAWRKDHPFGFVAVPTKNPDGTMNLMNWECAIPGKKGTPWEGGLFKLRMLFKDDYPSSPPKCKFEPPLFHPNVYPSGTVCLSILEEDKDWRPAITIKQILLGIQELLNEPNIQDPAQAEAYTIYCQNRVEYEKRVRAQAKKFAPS
UniProt P62306, whole entry, looked up: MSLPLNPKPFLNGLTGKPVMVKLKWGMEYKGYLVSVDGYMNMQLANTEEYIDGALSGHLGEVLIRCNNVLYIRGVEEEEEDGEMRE

Compound: Nc1ncnc2c1ncn2[C@@H]1O[C@H](COP(=O)(O)OP(=O)(O)NP(=O)(O)O)[C@@H](O)[C@H]1O [adenylyl imidodiphosphate]
Assay: NP40-soluble protein abundance relative to vehicle (solubility fold change) (ratio); higher = more soluble protein in presence of AMP-PNP
In short: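 Jurkat crude lysate (Dounce-homogenised) was treated with eight concentrations from 0.1 to 10 mM for 10 min at room temperature, then 3 min at 37 °C. It was solubilised with 0.8% NP40 and benzonase (60 min, 4 °C) and ultracentrifuged, and the supernatant was TMT-labelled for LC-MS/MS. Intensities were vsn-normalised, and the value is the fold change against the NP40-processed vehicle per replicate, from three independent experiments.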

| Target | NP40-soluble protein abundance (concentration: 0.1mM) | NP40-soluble protein abundance (concentration: 0.5mM) |
| --- | --- | --- |
| RPS27A (UniProt P62979) | 1 ± 0.065 | 1.01 ± 0.025 |
| AP1S2 (UniProt P56377) | 1.01 ± 0.049 | 1.024 ± 0.0088 |
| UniProt P60228 | 1.05 ± 0.028 | 1.04 ± 0.035 |
| UniProt P61764 and related entries | 1 ± 0.023 | 0.981 ± 0.033 |
| CKAP4 (UniProt Q07065) | 0.971 ± 0.017 | 0.998 ± 0.05 |
| UniProt P56282 and related entries | 0.988 ± 0.013 | 0.986 ± 0.025 |
| SOX4 (UniProt Q06945) | 0.983 ± 0.046 | 1.03 ± 0.039 |
| UniProt Q03188 and related entries | 0.975 ± 0.032 | 0.971 ± 0.01 |
| UniProt Q06609 and related entries | 1.019 ± 0.0072 | 1.01 ± 0.029 |
| UniProt P62314 | 1.023 ± 0.0087 | 1.03 ± 0.062 |
| UniProt P63272 | 0.9677 ± 0.0092 | 0.997 ± 0.013 |
| RPL38 (UniProt P63173) | 1 ± 0.042 | 0.997 ± 0.054 |
| MPP1 (UniProt Q00013) | 1.01 ± 0.011 | 0.993 ± 0.04 |
| UniProt P63010 and related entries | 0.9991 ± 0.0077 | 1.01 ± 0.034 |
| NOTCH2 (UniProt Q04721) | 0.97 ± 0.028 | 0.982 ± 0.025 |
| RPS3A (UniProt P61247) | 1.02 ± 0.012 | 0.9987 ± 0.009 |
| UniProt P61966 | 1.02 ± 0.036 | 1.04 ± 0.036 |
| UniProt Q01085-2 | 0.998 ± 0.061 | 0.97 ± 0.03 |
| UniProt P98082 and related entries | 0.988 ± 0.037 | 1.02 ± 0.014 |
| UniProt P56937 and related entries | 1.01 ± 0.039 | 0.999 ± 0.026 |

| Target | NP40-soluble protein abundance (concentration: 0.1mM) | NP40-soluble protein abundance (concentration: 0.5mM) |
| --- | --- | --- |
| UniProt P56159 and related entries | 0.968 ± 0.043 | 1 ± 0.032 |
| EIF4G2 (UniProt P78344) | 1.01 ± 0.018 | 1.02 ± 0.015 |
| UniProt P84103 and related entries | 1.01 ± 0.02 | 1.03 ± 0.054 |
| UniProt P57076 | 0.97 ± 0.076 | 1.02 ± 0.084 |
| UniProt Q02750 | 0.985 ± 0.019 | 1.06 ± 0.021 |
| UniProt Q05397 and related entries | 1.02 ± 0.049 | 0.969 ± 0.018 |
| UniProt Q01105-2 | 0.88 ± 0.15 | 0.941 ± 0.065 |
| UniProt P78346 and related entries | 1.04 ± 0.046 | 0.971 ± 0.043 |
| DHODH (UniProt Q02127) | 1.004 ± 0.008 | 0.969 ± 0.047 |
| UniProt P61254 | 1.07 ± 0.017 | 1.07 ± 0.057 |
| UniProt P67870 and related entries | 0.979 ± 0.029 | 0.997 ± 0.042 |
| ARF3 (UniProt P61204) | 1.04 ± 0.054 | 1.03 ± 0.1 |
| UniProt Q06330 and related entries | 0.986 ± 0.045 | 1.01 ± 0.097 |
| UniProt P62318 and related entries | 1.06 ± 0.12 | 1.04 ± 0.084 |
| UniProt P80217 and related entries | 0.961 ± 0.043 | 1 ± 0.041 |
| PPP2CA (UniProt P67775) | 0.99 ± 0.017 | 1.03 ± 0.012 |
| GBE1 (UniProt Q04446) | 0.998 ± 0.019 | 0.959 ± 0.046 |
| UniProt Q02809 and related entries | 1.035 ± 0.0024 | 1.02 ± 0.016 |
| UniProt Q05086 and related entries | 0.9906 ± 0.0026 | 0.976 ± 0.022 |
| UniProt P63092 and related entries | 1.01 ± 0.046 | 0.995 ± 0.029 |

| Target | NP40-soluble protein abundance (concentration: 0.1mM) | NP40-soluble protein abundance (concentration: 0.5mM) |
| --- | --- | --- |
| UniProt P62495 | 0.989 ± 0.033 | 0.98 ± 0.063 |
| UniProt P57081 and related entries | 0.964 ± 0.029 | 0.9879 ± 0.0073 |
| UniProt P78347 and related entries | 0.999 ± 0.027 | 1.03 ± 0.07 |
| UniProt Q01804 and related entries | 0.989 ± 0.049 | 0.99 ± 0.025 |
| UniProt P62875 | 1.02 ± 0.025 | 1.04 ± 0.039 |
| UniProt P62851 | 1.04 ± 0.07 | 1.01 ± 0.045 |
| PLCB3 (UniProt Q01970) | 0.988 ± 0.034 | 0.986 ± 0.025 |
| UniProt Q03001 and related entries | 0.982 ± 0.073 | 0.988 ± 0.064 |
| UniProt Q00325 and related entries | 1.03 ± 0.059 | 1.02 ± 0.046 |
| UniProt P68543 and related entries | 0.977 ± 0.026 | 0.959 ± 0.073 |
| UniProt P60520 | 0.979 ± 0.034 | 1.02 ± 0.021 |
| FOXK1 (UniProt P85037) | 0.991 ± 0.035 | 0.999 ± 0.07 |
| PURA (UniProt Q00577) | 0.99 ± 0.062 | 1.01 ± 0.096 |
| UniProt P55957 and related entries | 1.02 ± 0.068 | 1.06 ± 0.073 |
| UniProt P63279 | 1.03 ± 0.12 | 1.08 ± 0.1 |
| ACTR3 (UniProt P61158) | 1.04 ± 0.022 | 1.01 ± 0.074 |
| UniProt P60953 and related entries | 0.987 ± 0.042 | 1.03 ± 0.041 |
| UniProt P62306 | 1.03 ± 0.051 | 1.03 ± 0.1 |
| XPC (UniProt Q01831) | 0.986 ± 0.02 | 0.998 ± 0.034 |
| RPL6 (UniProt Q02878) | 1.03 ± 0.028 | 1.01 ± 0.081 |

At a glance, part of the list above:

| Target | NP40-soluble protein abundance (concentration: 0.1mM) | NP40-soluble protein abundance (concentration: 0.5mM) |
| --- | --- | --- |
| UniProt P60953 and related entries | 0.987 ± 0.042 | 1.03 ± 0.041 |
| UniProt P62306 | 1.03 ± 0.051 | 1.03 ± 0.1 |
